Test results taken from US20160130347A1.
These are yes or no findings as the source states them, for the method shown. Some results given as binding are weak or reduced against the parent protein; the word gives no strength.

Sequences of proteins named here, by UniProt entry; tags and fusion partners are left off. Residues count along the entry.
UniProt Q6UVK1, residues 1587-2221: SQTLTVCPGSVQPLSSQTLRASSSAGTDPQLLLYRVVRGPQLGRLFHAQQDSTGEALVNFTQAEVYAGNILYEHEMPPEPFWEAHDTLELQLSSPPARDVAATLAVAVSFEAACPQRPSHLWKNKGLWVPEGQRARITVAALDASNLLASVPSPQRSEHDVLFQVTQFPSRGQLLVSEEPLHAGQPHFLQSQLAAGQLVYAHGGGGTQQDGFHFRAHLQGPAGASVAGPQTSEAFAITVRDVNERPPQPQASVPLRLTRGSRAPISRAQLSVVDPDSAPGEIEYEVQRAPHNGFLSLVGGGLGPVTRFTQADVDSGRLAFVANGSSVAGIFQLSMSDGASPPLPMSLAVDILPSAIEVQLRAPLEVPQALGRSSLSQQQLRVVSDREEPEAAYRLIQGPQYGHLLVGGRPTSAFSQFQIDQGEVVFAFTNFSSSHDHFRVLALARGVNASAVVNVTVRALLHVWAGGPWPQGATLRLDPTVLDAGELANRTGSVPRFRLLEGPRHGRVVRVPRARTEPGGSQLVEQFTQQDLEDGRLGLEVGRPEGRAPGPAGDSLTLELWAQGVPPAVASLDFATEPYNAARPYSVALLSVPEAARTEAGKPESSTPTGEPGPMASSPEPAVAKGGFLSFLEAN

Biological target: human MCSP(D3 domain)-avi-his (human) (UniProt Q6UVK1)
Test: SPR Biacore T200

| binding | Binder |
| --- | --- |
| binds | M4-3(C1)/ML2(G3) IgG (antibody, V domains shown) VH: QVQLQESGPGLVKPSQTLSLTCTVSGGSITSGYYWNWIRQHPGKGLEWIGYITFDGSNNYNPSLKSRVTISRDTSKNQFSLKLSSVTAADTAVYYCADFDYWGQGTLVTVSS VL: DIQMTQSPSSLSASVGDRVTITCRASQGIRNYLNWYQQKPGKAPKLLIYYTSSLHSGVPSRFSGSGSGTDYTLTISSLQPEDFATYYCQQYSALPWTFGQGTKVEIKR |
| binds | M4-3(C1)/ML2(E10) IgG (antibody, V domains shown) VH: QVQLQESGPGLVKPSQTLSLTCTVSGGSITSGYYWNWIRQHPGKGLEWIGYITFDGSNNYNPSLKSRVTISRDTSKNQFSLKLSSVTAADTAVYYCADFDYWGQGTLVTVSS VL: DIQMTQSPSSLSASVGDRVTITCRASYGIRGYLNWYQQKPGKAPKLLIYYTSSLHSGVPSRFSGSGSGTDFTLTISSLQPEDFATYHCQQYSKLPWTFGQGTKVEIK |
| binds | M4-3(C1)/ML2(C5) IgG (antibody, V domains shown) VH: QVQLQESGPGLVKPSQTLSLTCTVSGGSITSGYYWNWIRQHPGKGLEWIGYITFDGSNNYNPSLKSRVTISRDTSKNQFSLKLSSVTAADTAVYYCADFDYWGQGTLVTVSS VL: DIQMTQSPSSLSASVGDRVTITCRASRGIREYLNWYQQKPGKAPKLLIYYTGSLHSGVPSRFSGSGSGTDFTLTISSLQPEDFATYYCQQYSELPWTFGQGTKVEIK |
